Consider 51 molecules from the supplement of paper PMC4962491.

± gives the standard deviation of the averaged measurements. The list shows a part of the results, in another mix than the full data. Single values are uncertain here, since repeats match poorly.

The experiment has as its system FaDu. Kind of experiment: mitochondrial oxygen consumption rate normalised to cell number, Z score over the library; higher = higher oxygen consumption (negative = OCR reduction). Particulars: treatment time 24 h, assay medium: 5 mM galactose, 5 mM pyruvate, 4 mM glutamine. Here is the method:
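Primary screen: FaDu cells were incubated 24 h with Pharmakon 1600 / TDI oncology set compounds at 2 or 10 uM. Mitochondrial-specific OCR (basal minus 2 uM antimycin A) was measured on a Seahorse XF96 in assay medium with 5 mM galactose, 5 mM pyruvate and 4 mM glutamine, then corrected for Hoechst cell number and expressed as a Z score […]. Compounds that cut cell number by >66% were excluded. Two repeats.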

Take `CC(C)(Oc1ccc(Cl)cc1)C(=O)O`: the “mitochondrial oxygen consumption rate normalised” value (2 µM) is -0.828 ± 0.29.
On to `CN1CCCN=C1COC(=O)C(O)(c1ccccc1)C1CCCCC1` (configuration not stated), for which, where the note is “2 µM”, the “mitochondrial oxygen consumption rate normalised” value is -0.634 ± 0.55.
Consider `CC(=O)NO`, for which, for the setting “2 µM”, the “mitochondrial oxygen consumption rate normalised” value came out at 1.76 ± 0.071.
As to `CC(=O)N[C@@H](CCC(N)=O)C(=O)O`, the “mitochondrial oxygen consumption rate normalised” value (2 µM) is -0.681 ± 0.011.
As to `NC12CC3CC(CC(C3)C1)C2`, where the note is “2 µM”, the “mitochondrial oxygen consumption rate normalised” value was 1.54 ± 0.49.
Consider `Cc1cc(=O)n(-c2ccccc2)n1C`, for which the “mitochondrial oxygen consumption rate normalised” value (2 µM) is -0.499 ± 0.12.
Turning to `Clc1ccc(COC(Cn2ccnc2)c2ccc(Cl)cc2Cl)c(Cl)c1` (configuration not stated), the “mitochondrial oxygen consumption rate normalised” value (2 µM) was -1.04 ± 0.26.
Consider `CC1CCc2c(N3CCC(O)CC3)c(F)cc3c(=O)c(C(=O)O)cn1c23` (configuration not stated), for which the “mitochondrial oxygen consumption rate normalised” value (2 µM) was -0.643 ± 0.68.
Turning to `Nc1ncnc(Nc2ccc(Cl)cc2)n1`, under “2 µM”, the “mitochondrial oxygen consumption rate normalised” value was found to be 0.0504 ± 1.1.
As to `CN1CCN(C2=Nc3cc(Cl)ccc3Nc3ccccc32)CC1`, the “mitochondrial oxygen consumption rate normalised” value (2 µM) amounted to 0.215 ± 3.
Regarding `CCCCCCCCCCCCCCCC(=O)NCCO`, the “mitochondrial oxygen consumption rate normalised” value (2 µM) was -0.98 ± 0.12.
On the same count and under the same terms, with `C[C@]12CC[C@@H]3c4ccc(O)cc4CC[C@H]3[C@@H]1CC[C@@H]2OC(=O)CCC1CCCC1` the figure was -0.693 ± 0.21.
As for `CN1CCc2cccc3c2[C@H]1Cc1ccc(O)c(O)c1-3`, the “mitochondrial oxygen consumption rate normalised” value (2 µM) is -0.518 ± 0.077.
As to `CCC(NC(C)C)C(O)c1ccc(O)c(O)c1` (configuration not stated), for the setting “2 µM”, the “mitochondrial oxygen consumption rate normalised” value was -0.00809 ± 0.1.
With `CCC(Cc1c(I)cc(I)c(N)c1I)C(=O)O` (configuration not stated), the “mitochondrial oxygen consumption rate normalised” value (2 µM) was -0.393 ± 0.32.
In the case of `CCOC(=O)C(C)(C)Oc1ccc(Cl)cc1`, the “mitochondrial oxygen consumption rate normalised” value (2 µM) was 0.469 ± 1.6.
Regarding `C[C@@H]1[C@H](O)[C@@H](C)/C=C/C=C/C=C/C=C/C=C/C=C/C=C/[C@H](O[C@@H]2O[C@H](C)[C@@H](O)[C@H](N)[C@@H]2O)C[C@@H]2O[C@](O)(C[C@@H](O)C[C@@H](O)[C@H](O)CC[C@@H](O)C[C@@H](O)CC(=O)O[C@H]1C)C[C@H](O)[C@H]2C(=O)O`, the “mitochondrial oxygen consumption rate normalised” value (2 µM) is -0.24 ± 0.75.
Consider `CO[C@@]1(NC(=O)CSCC#N)C(=O)N2C(C(=O)O)=C(CSc3nnnn3C)CS[C@@H]21`, for which, under “2 µM”, the “mitochondrial oxygen consumption rate normalised” value was -1.44 ± 2.2.
In the case of `CC(C)/N=c1\cc2n(-c3ccc(Cl)cc3)c3ccccc3nc-2cc1Nc1ccc(Cl)cc1`, under “2 µM”, the “mitochondrial oxygen consumption rate normalised” value came to 0.317 ± 0.31.
In the case of `O=C1Cc2cc(CCN3CCN(c4nsc5ccccc45)CC3)c(Cl)cc2N1`, the “mitochondrial oxygen consumption rate normalised” value (2 µM) is -0.0273 ± 0.55.
Consider `CC(=O)N(O)CCCCCNC(=O)CCC(=O)N(O)CCCCCNC(=O)CCC(=O)N(O)CCCCCN`, for which the “mitochondrial oxygen consumption rate normalised” value (2 µM) is -0.402 ± 1.
On to `CN1CC(=O)NC1=N`, for which the “mitochondrial oxygen consumption rate normalised” value (2 µM) was 0.328 ± 0.28.
For the molecule `Nc1ncn([C@H]2C[C@H](O)[C@@H](CO)O2)c(=O)n1` [Decitabine], the “mitochondrial oxygen consumption rate normalised” value (2 µM) is 1.01 ± 0.85.
Regarding `CC(C)(C(=O)c1cccnc1)c1cccnc1`, under “2 µM”, the “mitochondrial oxygen consumption rate normalised” value worked out at 0.0154 ± 1.2.
With `CCCCC1=NC2(CCCC2)C(=O)N1Cc1ccc(-c2ccccc2-c2nnn[nH]2)cc1`, the “mitochondrial oxygen consumption rate normalised” value (2 µM) came out at 0.439 ± 1.1.
As for `CC[C@H]1OC(=O)[C@H](C)[C@@H](O[C@H]2C[C@@](C)(OC)[C@@H](O)[C@H](C)O2)[C@H](C)[C@@H](O[C@@H]2O[C@H](C)C[C@H](N(C)C)[C@H]2O)[C@](C)(OC)C[C@@H](C)C(=O)[C@H](C)[C@@H](O)[C@]1(C)O`, the “mitochondrial oxygen consumption rate normalised” value (2 µM) was -0.781 ± 1.5.
Consider `O=C(Nc1ccc(C(=O)O)c(O)c1)c1ccccc1`, for which, under “2 µM”, the “mitochondrial oxygen consumption rate normalised” value amounted to 0.498 ± 0.34.
Consider `CCCCOC(=O)c1ccc(N)cc1`, for which, for the setting “2 µM”, the “mitochondrial oxygen consumption rate normalised” value was -0.249 ± 0.2.
`N=C(N)NC(=O)c1nc(Cl)c(N)nc1N`: under “2 µM”, the “mitochondrial oxygen consumption rate normalised” value was determined as 0.675 ± 1.5.
Same read-out and setting: the same measure for `COc1ccc(Cc2cnc(N)nc2N)cc1OC`: 1.36 ± 0.16; for `S=C1SCN(Cc2ccccc2)CN1Cc1ccccc1`: -0.177 ± 0.077.
Consider `Cc1cc(C2CCCCC2)n(O)c(=O)c1`, for which the “mitochondrial oxygen consumption rate normalised” value (2 µM) was -0.396 ± 0.54.
For the molecule `NS(=O)(=O)c1cc(C(=O)O)c(NCc2ccco2)cc1Cl`, the “mitochondrial oxygen consumption rate normalised” value (2 µM) is -1.21 ± 0.45.
`O=C(O)c1cc(=O)c2ccccc2o1`: the “mitochondrial oxygen consumption rate normalised” value (2 µM) worked out at 0.846 ± 0.41.
The same measure, in the same setting: the same measure for `CC(C)COCC(CN(Cc1ccccc1)c1ccccc1)N1CCCC1` (configuration not stated): 0.593 ± 0.7; for `CCOC(=O)[C@H](CCc1ccccc1)N[C@@H](C)C(=O)N1[C@H](C(=O)O)C[C@@H]2CCC[C@@H]21`: 0.605 ± 0.82; for `NC(=O)c1ncn([C@@H]2O[C@H](CO)[C@@H](O)[C@H]2O)n1`: 0.516 ± 0.71.
Consider `CN[C@H](CC(C)C)C(=O)N[C@H]1C(=O)N[C@@H](CC(N)=O)C(=O)N[C@H]2C(=O)N[C@H]3C(=O)N[C@H](C(=O)N[C@H](C(=O)O)c4cc(O)cc(O)c4-c4cc3ccc4O)[C@H](O)c3ccc(c(Cl)c3)Oc3cc2cc(c3O[C@@H]2O[C@H](CO)[C@@H](O)[C@H](O)[C@H]2O[C@H]2C[C@](C)(N)[C@H](O)[C@H](C)O2)Oc2ccc(cc2Cl)[C@H]1O`, for which the “mitochondrial oxygen consumption rate normalised” value (2 µM) is -1.26 ± 0.25.
As to `O=C(CCCl)NCc1ccccc1`, the “mitochondrial oxygen consumption rate normalised” value (2 µM) is -0.193 ± 0.39.
On to `CNS(=O)(=O)Cc1ccc2[nH]cc(CCN(C)C)c2c1`, for which the “mitochondrial oxygen consumption rate normalised” value (2 µM) is 0.219 ± 1.4.
Turning to `NS(=O)(=O)c1cc2c(cc1Cl)N=CNS2(=O)=O`, where the note is “2 µM”, the “mitochondrial oxygen consumption rate normalised” value was -3.45 ± 0.3.
`O=C(Nc1ccccc1)c1ccccc1O`: the “mitochondrial oxygen consumption rate normalised” value (2 µM) was -0.555 ± 0.59 and the “mitochondrial oxygen consumption rate normalised” value (10 µM) is -0.209 ± 0.021.
For `Cc1[nH]c(=O)c(C#N)cc1-c1ccncc1`, the “mitochondrial oxygen consumption rate normalised” value (2 µM) was 0.94 ± 0.057.
Still for that read-out and setting: with `CN(C)CCC=C1c2ccccc2CCc2ccccc21` the figure was 1.31 ± 0.46; with `Cc1ccnc2c1NC(=O)c1cccnc1N2C1CC1`, 0.323 ± 0.88; with `C#C[C@]1(O)CC[C@H]2[C@@H]3CCc4cc(OC5CCCC5)ccc4[C@H]3CC[C@@]21C`, 0.372 ± 0.19.
Regarding `Oc1ccc(Cl)c2c1CCC2`, for the setting “2 µM”, the “mitochondrial oxygen consumption rate normalised” value was -0.161 ± 0.55.
With `CS(=O)(=O)c1ccc(C2=C(c3ccccc3)C(=O)OC2)cc1`, the “mitochondrial oxygen consumption rate normalised” value (2 µM) came out at 0.505 ± 1.5.
For `Cn1c(=O)c2[nH]cnc2n(C)c1=O`, for the setting “2 µM”, the “mitochondrial oxygen consumption rate normalised” value was determined as 0.186 ± 0.36.
For the molecule `C=C[C@H]1CN2CC[C@H]1C[C@@H]2[C@@H](O)c1ccnc2ccc(OC)cc12`, the “mitochondrial oxygen consumption rate normalised” value (2 µM) was -0.0801 ± 0.032.
Still for that read-out and setting: with `Cc1c(C(N)=O)cc([N+](=O)[O-])cc1[N+](=O)[O-]` the figure was 0.79 ± 1.3.
